# PubChem BioAssay AID504764 | Drosophila RNAi Screening Center, 2011
# Assay: 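Knock-downs that raise or lower a Notch target reporter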 (primary screen)
# Cells: Drosophila Kc167 cells
# Knock-down reagent: long dsRNA against Drosophila genes
# Timing: about 5 days (4 days dsRNA, then 24 h after transfection)
# Treatment: transfection of constitutively active membrane-tethered Notch lacking the extracellular domain, read 24 h later
# Measured: 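Firefly luciferase from an E(spl)m3 reporter with active Notch, plus control-promoter and uninduced reporter wells for normalisation; unnormalised counts, duplicate wells a and b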
# Reading the numbers: induced reporter light, run 1, well a and induced reporter light, run 1, well b: higher = more light from the Notch target reporter with active Notch; control promoter light, run 1, well a and control promoter light, run 1, well b: higher = more light from the viral control promoter (cell number, transfection, viability); uninduced reporter light, run 1, well a: higher = more light from the Notch target reporter without active Notch
# Call rule: 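Wells with low control signal or poorly matching duplicates excluded; duplicates averaged; per source plate, z beyond ±2 for induced/control log2 ratio or beyond ±1.8 for induced/uninduced marks a hit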
# Calls: active = modifier hit (raised or lowered Notch signal); inactive = not a hit
# The screen tested about 22,000 reagents; shown is an unselected part of those that have a named target and a result. Over the whole deposit, 403 (1.9%) are marked active. 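Unnormalised raw counts per well; ratio z-scores behind the hit calls and whether each hit raises or lowers signal are not deposited.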 A plus sign joins genes that one reagent is predicted to hit. Not given: the amount of reagent.
predicted target,amplicon,"induced reporter light, run 1, well a","induced reporter light, run 1, well b","control promoter light, run 1, well a","control promoter light, run 1, well b","uninduced reporter light, run 1, well a",Outcome
CG3309,DRSC18301,1.56e5,1.76e5,2.96e5,3.55e5,11860,inactive
CG8509,DRSC20109,1.59e5,1.72e5,1.92e5,1.74e5,11610,inactive
CG12025,DRSC08230,95070,1.65e5,2.36e5,1.61e5,7285,inactive
Syn1 (Syntrophin-like 1),DRSC11803,1.17e5,1.08e5,94770,90160,7430,inactive
Syn1 (Syntrophin-like 1),DRSC11804,1.53e5,96925,1.10e5,1.10e5,8750,inactive
Cyp6t3 (Cytochrome P450 6t3),DRSC07388,89855,85670,1.02e5,1.03e5,9125,inactive
CG15213,DRSC10213,1.14e5,1.27e5,1.28e5,80785,8195,inactive
CG11679,DRSC19415,1.34e5,1.01e5,1.49e5,1.66e5,8438,inactive

Quoted from above (3 entries):
predicted target,amplicon,"induced reporter light, run 1, well a","induced reporter light, run 1, well b","control promoter light, run 1, well a","control promoter light, run 1, well b","uninduced reporter light, run 1, well a",Outcome
Cyp6t3 (Cytochrome P450 6t3),DRSC07388,89855,85670,1.02e5,1.03e5,9125,inactive
CG15213,DRSC10213,1.14e5,1.27e5,1.28e5,80785,8195,inactive
CG11679,DRSC19415,1.34e5,1.01e5,1.49e5,1.66e5,8438,inactive

The listing continues.
predicted target,amplicon,"induced reporter light, run 1, well a","induced reporter light, run 1, well b","control promoter light, run 1, well a","control promoter light, run 1, well b","uninduced reporter light, run 1, well a",Outcome
jef (jet fuel),DRSC06198,1.34e5,1.50e5,2.15e5,1.86e5,11460,inactive
4E-T (eIF4E-Transporter),DRSC17201,1.31e5,1.48e5,1.70e5,1.68e5,10855,inactive
4E-T (eIF4E-Transporter),DRSC17208,91940,1.08e5,1.81e5,1.58e5,8940,inactive
Cyp9c1 (Cytochrome P450 9c1),DRSC04607,1.80e5,2.22e5,1.84e5,1.66e5,12955,inactive
JTBR,DRSC08667,1.23e5,1.04e5,2.16e5,2.15e5,8750,inactive
CG8260,DRSC20098,34695,28685,27620,18055,3815,inactive
snRNA:U1:95Cc + snRNA:U1:95Cb,DRSC13641,1.93e5,1.97e5,1.98e5,2.03e5,17950,inactive
CG3589,DRSC04392,1.90e5,1.56e5,1.69e5,1.66e5,12635,inactive
RPA2 (Replication protein A2),DRSC03184,1.79e5,1.52e5,1.20e5,1.02e5,13820,inactive
CG14933 + CG42486,DRSC02415,1.62e5,2.02e5,1.07e5,1.48e5,22820,inactive
Nsun5 (Nop2/Sun-like domain containing protein 5),DRSC15835,1.71e5,1.86e5,2.10e5,2.45e5,17930,inactive
"SerRS-m (Seryl-tRNA synthetase, mitochondrial)",DRSC14096,2.51e5,2.53e5,2.37e5,2.13e5,20795,inactive
